# Like-named read-outs stand apart in the source and are kept apart here. No constants are given. Whether binding was seen depends on the method and setting. For part of these data: Binding seen in cells or lysates may run through a third protein. Some binding calls cover weakened binding; strength is not graded here. For part of these data: Sequences can lack the tags named with a protein.
# Sequences of proteins named here, by UniProt entry; tags and fusion partners are left off. A change or cut given only in a name is not applied to a line headed by its entry. A line that says so, or that is headed by a name, gives the form on record, which may keep a tag or linker.
# UniProt Q9V460: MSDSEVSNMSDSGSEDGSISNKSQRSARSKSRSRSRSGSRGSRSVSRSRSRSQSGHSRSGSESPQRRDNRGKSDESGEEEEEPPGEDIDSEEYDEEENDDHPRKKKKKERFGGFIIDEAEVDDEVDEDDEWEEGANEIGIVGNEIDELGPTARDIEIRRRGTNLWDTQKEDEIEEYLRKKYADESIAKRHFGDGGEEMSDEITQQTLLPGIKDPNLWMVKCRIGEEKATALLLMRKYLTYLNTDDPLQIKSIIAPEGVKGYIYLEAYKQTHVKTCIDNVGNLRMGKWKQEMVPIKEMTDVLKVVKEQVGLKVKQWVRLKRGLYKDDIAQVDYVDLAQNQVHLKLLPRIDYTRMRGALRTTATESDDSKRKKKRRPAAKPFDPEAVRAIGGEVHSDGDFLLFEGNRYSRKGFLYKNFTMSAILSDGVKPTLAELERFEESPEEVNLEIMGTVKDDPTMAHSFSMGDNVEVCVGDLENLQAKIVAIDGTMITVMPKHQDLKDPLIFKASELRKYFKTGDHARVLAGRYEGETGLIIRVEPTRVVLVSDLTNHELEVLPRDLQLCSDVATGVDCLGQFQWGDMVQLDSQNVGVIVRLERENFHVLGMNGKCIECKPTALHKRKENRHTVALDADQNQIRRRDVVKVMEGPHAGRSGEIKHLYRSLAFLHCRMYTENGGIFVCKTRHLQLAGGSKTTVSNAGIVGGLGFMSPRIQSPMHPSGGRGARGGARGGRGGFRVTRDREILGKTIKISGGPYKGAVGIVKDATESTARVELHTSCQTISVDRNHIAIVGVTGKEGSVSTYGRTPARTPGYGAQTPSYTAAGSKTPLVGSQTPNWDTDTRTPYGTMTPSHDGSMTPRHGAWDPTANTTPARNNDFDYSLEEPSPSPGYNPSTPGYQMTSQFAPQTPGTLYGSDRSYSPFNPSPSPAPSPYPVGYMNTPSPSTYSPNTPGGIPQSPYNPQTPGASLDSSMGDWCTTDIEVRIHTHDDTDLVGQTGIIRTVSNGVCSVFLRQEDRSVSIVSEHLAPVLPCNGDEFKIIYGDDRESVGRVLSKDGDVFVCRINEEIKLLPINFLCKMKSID
# Flag-tagged W049 variant of Spt5 (Q9V460, form named): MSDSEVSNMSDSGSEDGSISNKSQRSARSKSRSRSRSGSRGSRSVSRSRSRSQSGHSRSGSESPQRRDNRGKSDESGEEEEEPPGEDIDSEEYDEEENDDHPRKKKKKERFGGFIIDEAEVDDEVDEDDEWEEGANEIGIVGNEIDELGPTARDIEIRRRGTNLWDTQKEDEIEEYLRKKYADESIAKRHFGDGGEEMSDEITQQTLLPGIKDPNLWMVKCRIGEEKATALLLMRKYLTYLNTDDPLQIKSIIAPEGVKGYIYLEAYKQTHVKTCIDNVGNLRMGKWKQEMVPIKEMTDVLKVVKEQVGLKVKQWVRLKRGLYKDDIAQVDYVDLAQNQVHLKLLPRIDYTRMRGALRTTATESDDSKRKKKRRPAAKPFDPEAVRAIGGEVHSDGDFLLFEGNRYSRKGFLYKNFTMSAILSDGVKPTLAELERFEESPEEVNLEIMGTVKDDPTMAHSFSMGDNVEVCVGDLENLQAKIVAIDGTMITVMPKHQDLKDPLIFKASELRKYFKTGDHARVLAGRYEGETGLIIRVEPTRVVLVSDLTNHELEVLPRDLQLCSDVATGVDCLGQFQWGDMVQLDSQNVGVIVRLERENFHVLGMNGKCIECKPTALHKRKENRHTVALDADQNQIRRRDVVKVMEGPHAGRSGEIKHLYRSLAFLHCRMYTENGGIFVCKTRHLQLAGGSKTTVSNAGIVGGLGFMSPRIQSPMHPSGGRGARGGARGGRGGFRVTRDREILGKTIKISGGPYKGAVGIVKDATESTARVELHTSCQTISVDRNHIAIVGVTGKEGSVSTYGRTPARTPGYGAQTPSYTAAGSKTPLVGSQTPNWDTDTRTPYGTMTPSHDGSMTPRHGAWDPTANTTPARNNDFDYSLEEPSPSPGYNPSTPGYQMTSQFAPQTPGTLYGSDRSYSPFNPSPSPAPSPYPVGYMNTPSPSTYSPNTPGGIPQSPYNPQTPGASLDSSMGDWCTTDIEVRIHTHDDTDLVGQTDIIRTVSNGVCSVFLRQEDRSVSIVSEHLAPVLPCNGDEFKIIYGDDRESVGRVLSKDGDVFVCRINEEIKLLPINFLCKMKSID
# Tests used:
# [1] = molecular target: Full length Spt5 in pGBKT7 (Drosophila) (UniProt Q9V460); assay: two-hybrid; direct test; Spt5 or its DD in pGBKT7, full length Pho in pGADT7; empty pGBKT7 as control
# [2] = molecular target: Full length W049 protein (Spt5 G994D), yeast 2-hybrid construct (Drosophila) (UniProt Q9V460); assay: two-hybrid; data not shown; W049 (G994D) DD and full length W049 protein tested with Pho
# [3] = molecular target: Flag-tagged Spt5 (Drosophila) (UniProt Q9V460); assay: co-IP; Flag-tagged Spt5 (or its W049 variant) and Myc-tagged proteins expressed in transfected S2R+ cells; Western blots with anti-Myc and anti-FLAG M2
# [4] = molecular target: Flag-tagged W049 variant of Spt5 (Drosophila) (UniProt Q9V460); assay: as above
# [5] = molecular target: Flag-tagged Spt5 (Drosophila) (UniProt Q9V460); assay: as above; remark: listed apart in the source
molecule,measurement,setting,value
Full length Pleiohomeotic (Pho) in pGADT7 (from UniProt Q8ST83 1-520),binding,[1],binds
same,binding,[2],binds
Myc-C-Pho (351-520) (from UniProt Q8ST83 351-520) (domain or fragment),binding,[3],no binding
Myc-Pho (from UniProt Q8ST83 1-520),binding,[4],binds
same,binding,[3],binds
"Myc-N-Pho (amino acids 1-351) (domain or fragment, UniProt Q8ST83 1-351) MAYERFGIILQSEQYDEDIGNTKVNQKMNEGNHYDLHRKNAFDRIIHSESKKGDNVINYNIHENDKIKAADNIFSSKLKMNPNMSYEMNINCFKNIGYGENQETSKVLTNSLSNNDINTEESGVVDKNSPFLTLGTTILNSNGKSRRWEQKLVHIKTMEGEFSVTMWASGISDDEYSGSDQIVGASDLLKGKEEFGIDGFTSQQNKEYQKMESKFTNAQTLEMPHPISSVQIMDHLIKERGNLSQENNISERILSKTTLSFEEPILLPDSSSIELVNETAAMTINNHRTLSNHTGNTGDLHALPSSVPFRIGLHEGQVNDCLSTISQSTHQDNTDSTGCGEMNLSEVTVSY",binding,[5],binds
